The text below walks through data of article PMC8610992.

Sequences of proteins named here, by UniProt entry; tags and fusion partners are left off.
UniProt P60953: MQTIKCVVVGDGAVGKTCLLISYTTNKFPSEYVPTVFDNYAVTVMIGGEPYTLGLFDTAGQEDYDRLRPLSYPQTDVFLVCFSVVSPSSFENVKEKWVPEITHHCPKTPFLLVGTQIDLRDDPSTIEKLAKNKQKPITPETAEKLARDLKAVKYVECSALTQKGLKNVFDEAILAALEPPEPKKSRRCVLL
UniProt Q86YZ3: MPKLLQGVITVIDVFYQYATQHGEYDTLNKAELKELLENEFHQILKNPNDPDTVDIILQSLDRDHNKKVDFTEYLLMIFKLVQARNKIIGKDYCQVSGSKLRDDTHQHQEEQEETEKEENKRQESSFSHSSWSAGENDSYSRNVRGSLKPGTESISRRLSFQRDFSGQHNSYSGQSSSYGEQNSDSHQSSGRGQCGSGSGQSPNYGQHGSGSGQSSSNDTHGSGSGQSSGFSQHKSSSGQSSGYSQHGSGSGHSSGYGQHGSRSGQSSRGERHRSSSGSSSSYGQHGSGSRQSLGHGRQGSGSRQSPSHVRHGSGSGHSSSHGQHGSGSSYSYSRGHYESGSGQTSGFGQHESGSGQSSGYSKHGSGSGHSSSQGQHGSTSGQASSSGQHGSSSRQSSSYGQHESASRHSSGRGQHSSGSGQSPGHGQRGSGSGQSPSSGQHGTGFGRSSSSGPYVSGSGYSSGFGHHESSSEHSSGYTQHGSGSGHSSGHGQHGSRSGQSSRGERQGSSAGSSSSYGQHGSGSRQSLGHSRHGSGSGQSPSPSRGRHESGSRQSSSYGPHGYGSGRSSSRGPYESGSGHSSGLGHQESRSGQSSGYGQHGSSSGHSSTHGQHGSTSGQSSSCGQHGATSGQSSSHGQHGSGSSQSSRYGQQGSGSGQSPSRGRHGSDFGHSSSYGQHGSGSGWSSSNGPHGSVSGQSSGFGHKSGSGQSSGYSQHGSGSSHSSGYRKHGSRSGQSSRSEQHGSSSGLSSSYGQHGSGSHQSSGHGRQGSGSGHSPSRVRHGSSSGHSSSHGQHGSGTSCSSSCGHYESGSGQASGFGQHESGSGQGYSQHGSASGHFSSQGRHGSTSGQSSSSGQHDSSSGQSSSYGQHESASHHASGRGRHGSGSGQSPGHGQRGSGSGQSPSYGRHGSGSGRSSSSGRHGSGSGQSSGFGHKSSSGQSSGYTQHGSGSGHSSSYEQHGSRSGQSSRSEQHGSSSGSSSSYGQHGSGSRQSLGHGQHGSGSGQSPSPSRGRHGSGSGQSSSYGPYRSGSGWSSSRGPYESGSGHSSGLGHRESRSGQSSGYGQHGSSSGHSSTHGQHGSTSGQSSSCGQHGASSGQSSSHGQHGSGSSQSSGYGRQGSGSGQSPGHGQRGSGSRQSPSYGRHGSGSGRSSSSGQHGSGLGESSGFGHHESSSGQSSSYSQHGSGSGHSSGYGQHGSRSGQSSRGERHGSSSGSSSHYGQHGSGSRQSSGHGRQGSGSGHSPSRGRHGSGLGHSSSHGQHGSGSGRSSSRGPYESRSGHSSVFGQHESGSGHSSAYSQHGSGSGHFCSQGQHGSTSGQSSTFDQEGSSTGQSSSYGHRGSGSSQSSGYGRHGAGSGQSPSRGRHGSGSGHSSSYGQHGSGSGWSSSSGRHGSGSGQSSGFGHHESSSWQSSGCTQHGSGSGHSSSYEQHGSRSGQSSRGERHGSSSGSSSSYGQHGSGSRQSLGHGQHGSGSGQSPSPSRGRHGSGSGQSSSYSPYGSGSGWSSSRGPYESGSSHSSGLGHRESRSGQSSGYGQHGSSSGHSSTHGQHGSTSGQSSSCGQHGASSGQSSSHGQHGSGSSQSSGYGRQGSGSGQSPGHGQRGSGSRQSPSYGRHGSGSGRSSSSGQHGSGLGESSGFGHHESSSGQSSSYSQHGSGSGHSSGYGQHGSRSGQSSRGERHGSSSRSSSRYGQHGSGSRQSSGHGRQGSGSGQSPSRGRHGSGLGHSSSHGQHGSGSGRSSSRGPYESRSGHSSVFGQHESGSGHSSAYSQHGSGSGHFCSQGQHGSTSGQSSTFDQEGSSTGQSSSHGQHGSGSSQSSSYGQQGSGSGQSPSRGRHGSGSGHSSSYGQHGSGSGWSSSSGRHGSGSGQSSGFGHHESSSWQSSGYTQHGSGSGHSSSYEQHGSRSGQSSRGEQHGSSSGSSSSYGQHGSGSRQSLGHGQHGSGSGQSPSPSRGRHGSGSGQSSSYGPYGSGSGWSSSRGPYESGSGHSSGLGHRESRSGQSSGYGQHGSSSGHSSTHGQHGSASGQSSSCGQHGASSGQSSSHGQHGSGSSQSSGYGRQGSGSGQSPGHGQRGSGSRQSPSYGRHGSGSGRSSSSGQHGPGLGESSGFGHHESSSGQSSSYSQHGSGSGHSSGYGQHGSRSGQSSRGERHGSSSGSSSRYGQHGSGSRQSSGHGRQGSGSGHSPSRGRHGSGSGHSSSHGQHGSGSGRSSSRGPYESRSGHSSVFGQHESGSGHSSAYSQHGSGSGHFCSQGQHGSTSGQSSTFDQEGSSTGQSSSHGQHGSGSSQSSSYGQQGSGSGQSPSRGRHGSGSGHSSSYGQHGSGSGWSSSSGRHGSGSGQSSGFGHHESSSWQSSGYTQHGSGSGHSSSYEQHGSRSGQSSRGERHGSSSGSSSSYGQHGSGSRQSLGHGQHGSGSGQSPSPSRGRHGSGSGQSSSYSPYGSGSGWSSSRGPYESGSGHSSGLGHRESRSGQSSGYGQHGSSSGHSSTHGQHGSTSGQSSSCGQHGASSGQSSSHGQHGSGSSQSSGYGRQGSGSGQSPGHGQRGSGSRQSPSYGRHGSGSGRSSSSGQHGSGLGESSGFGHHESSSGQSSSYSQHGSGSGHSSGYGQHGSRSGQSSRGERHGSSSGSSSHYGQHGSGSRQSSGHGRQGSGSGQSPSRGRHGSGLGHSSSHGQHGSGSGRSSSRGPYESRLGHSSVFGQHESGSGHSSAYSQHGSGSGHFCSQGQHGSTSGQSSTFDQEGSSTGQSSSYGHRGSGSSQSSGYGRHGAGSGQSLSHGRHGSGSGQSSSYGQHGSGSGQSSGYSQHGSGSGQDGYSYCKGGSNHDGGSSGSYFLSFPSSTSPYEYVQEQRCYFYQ
UniProt Q8TEW0: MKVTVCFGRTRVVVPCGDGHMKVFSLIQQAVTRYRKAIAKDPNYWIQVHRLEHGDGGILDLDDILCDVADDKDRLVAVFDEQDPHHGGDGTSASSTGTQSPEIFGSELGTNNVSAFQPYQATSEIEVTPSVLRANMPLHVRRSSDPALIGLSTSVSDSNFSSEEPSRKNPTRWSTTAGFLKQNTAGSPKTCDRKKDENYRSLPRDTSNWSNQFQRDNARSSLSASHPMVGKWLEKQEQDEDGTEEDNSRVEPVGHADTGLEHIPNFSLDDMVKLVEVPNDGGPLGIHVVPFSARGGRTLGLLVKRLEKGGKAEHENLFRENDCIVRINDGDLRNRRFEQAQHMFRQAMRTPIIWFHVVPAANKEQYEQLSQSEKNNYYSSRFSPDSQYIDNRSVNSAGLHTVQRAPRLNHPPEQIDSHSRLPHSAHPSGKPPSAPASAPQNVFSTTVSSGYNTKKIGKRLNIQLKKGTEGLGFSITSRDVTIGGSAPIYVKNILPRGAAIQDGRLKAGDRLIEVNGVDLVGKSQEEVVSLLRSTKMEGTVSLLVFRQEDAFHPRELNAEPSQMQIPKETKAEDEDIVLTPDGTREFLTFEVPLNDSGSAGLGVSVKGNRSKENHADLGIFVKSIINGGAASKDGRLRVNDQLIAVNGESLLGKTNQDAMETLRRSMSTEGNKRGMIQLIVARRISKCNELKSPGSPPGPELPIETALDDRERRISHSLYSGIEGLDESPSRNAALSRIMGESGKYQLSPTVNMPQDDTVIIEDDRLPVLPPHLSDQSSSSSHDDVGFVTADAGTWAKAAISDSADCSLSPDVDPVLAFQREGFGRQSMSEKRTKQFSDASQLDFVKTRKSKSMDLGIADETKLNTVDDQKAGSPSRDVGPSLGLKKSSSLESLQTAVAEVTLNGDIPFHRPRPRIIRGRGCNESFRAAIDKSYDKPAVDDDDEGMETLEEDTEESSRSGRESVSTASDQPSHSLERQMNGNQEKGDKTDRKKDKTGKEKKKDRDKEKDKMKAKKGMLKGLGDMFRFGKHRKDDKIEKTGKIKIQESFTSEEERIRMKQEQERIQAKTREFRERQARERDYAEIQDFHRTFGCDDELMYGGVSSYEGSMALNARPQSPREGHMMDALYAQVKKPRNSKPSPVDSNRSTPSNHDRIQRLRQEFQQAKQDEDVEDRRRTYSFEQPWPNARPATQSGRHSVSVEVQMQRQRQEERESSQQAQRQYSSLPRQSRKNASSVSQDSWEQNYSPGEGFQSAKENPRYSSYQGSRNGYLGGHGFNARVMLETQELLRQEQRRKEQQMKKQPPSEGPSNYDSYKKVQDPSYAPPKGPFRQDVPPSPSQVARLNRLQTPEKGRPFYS

No constants are given. Whether binding was seen depends on the method and setting. Binding seen in cells or lysates may run through a third protein. A yes stands for co-enrichment or nearness to the bait. Other partners may have been found.

Assay [1] concerns the target T1, BirA*-PAR6B (UniProt Q9BYG5).
T1 sequence: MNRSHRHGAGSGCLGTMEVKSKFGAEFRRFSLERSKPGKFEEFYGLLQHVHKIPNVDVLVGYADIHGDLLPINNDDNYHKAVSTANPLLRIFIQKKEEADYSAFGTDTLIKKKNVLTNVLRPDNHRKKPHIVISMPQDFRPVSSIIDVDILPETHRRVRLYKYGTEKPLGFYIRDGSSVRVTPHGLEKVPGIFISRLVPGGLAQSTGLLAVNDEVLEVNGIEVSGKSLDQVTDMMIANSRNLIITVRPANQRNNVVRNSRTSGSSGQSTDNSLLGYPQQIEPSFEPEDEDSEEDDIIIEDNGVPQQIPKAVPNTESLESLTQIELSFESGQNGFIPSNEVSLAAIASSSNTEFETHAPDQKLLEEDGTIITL
Put plainly: proximity labelling; BioID: BirA*-PAR6B in Caco-2 cells, 3D suspension cysts and 2D on plastic, 50 uM biotin for 48 h, RIPA lysis, streptavidin beads, mass spectrometry; control BirA*-mCherry; triplicates.

The target of assay [2] is T1, BirA*-PAR6B. The assay can be described thus: proximity labelling; BioID: streptavidin pull-down from 2D and 3D Caco-2 cells expressing BirA*-PAR6B or BirA*-mCherry, immunoblot. (In general: A western blot detects proteins with antibodies after separation by electrophoresis.)

As for CDC42 (from UniProt P60953 1-191), in the assay with BirA*-PAR6B [1], the binding entry is given as “binds”. In the case of SQSTM1/p62 (from UniProt Q13501 1-440), in the assay with BirA*-PAR6B [1], the binding result is “binds”.

In the case of “HRNR (Hornerin) (from UniProt Q86YZ3 1-2850)”, in the assay with BirA*-PAR6B [1], the binding entry is “binds”. For PARD3 (from UniProt Q8TEW0 1-1356), the binding entry in the assay with BirA*-PAR6B [2] and in the assay with BirA*-PAR6B [1] was “binds” throughout.

B1: LLGL1 (protein, UniProt Q15334 1-1064)
chain: MMKFRFRRQGADPQREKLKQELFAFNKTVEHGFPNQPSALAFDPELRIMAIGTRSGAVKIYGAPGVEFTGLHRDAATVTQMHFLTGQGRLLSLLDDSSLHLWEIVHHNGCAHLEEALSFQLPSRPGFDGASAPLSLTRVTVVLLVAASDIAALGTEGSSVFFLDVTTLTLLEGQTLAPGEVLRSVPDDYRCGKALGPVESLQGHLRDPTKILIGYSRGLLVIWNQASQCVDHIFLGNQQLESLCWGRDSSTVVSSHSDGSYAVWSVDAGSFPTLQPTVATTPYGPFPCKAINKILWRNCESGGHFIIFSGGMPRASYGDRHCVSVLRAETLVTLDFTSRIIDFFTVHSTRPEDEFDDPQALAVLLEEELVVLDLQTPGWPAVPAPYLAPLHSSAITCSAHVASVPAKLWARIVSAGEQQSPQPVSSALSWPITGGRNLAQEPSQRGLLLTGHEDGTVRFWDASGVALRPLYKLSTAGLFQTDCEHADSLAQAAEDDWPPFRKVGCFDPYSDDPRLGVQKVALCKYTAQMVVAGTAGQVLVLELSDVPVEQAVSVAIIDLLQDREGFTWKGHERLSPRTGPLPWPAGFQPRVLVQCLPPAAVTAVTLHTEWSLVAFGTSHGFGLFDYQRKSPVLARCTLHPNDSLAMEGPLSRVKSLKKSLRQSFRRIRKSRVSGKKRAANASSKLQEANAQLAEQACPHDVEMTPVQRRIEPRSADDSLSGVVRCLYFADTFLRDGAHHGPTMWAGTNSGSVFAYALEVPAAAVGGEKRPEQAVEAVLGKEVQLMHRAPVVAIAVLDGRGRPLPEPYEASRDLAQAPDMQGGHAVLIASEEQFKVFTLPKVSAKTKFKLTAHEGCRVRKVALATFASVACEDYAETCLACLTNLGDVHVFSVPGLRPQVHYSCIRKEDISGIASCVFTRHGQGFYLISPSEFERFSLSARNITEPLCSLDINWPRDATQASYRIRESPKLSQANGTPSILLAPQSLDGSPDPAHSMGPDTPEPPEAALSPMSIDSATSADTTLDTTGDVTVEDVKDFLGSSEESEKNLRNLAEDEAHACAILIK
For the molecule B1, the binding entry with BirA*-PAR6B [1] is on record as “binds”.

B2: PRKCZ (protein, UniProt Q05513 1-592)
chain: MPSRTGPKMEGSGGRVRLKAHYGGDIFITSVDAATTFEELCEEVRDMCRLHQQHPLTLKWVDSEGDPCTVSSQMELEEAFRLARQCRDEGLIIHVFPSTPEQPGLPCPGEDKSIYRRGARRWRKLYRANGHLFQAKRFNRRAYCGQCSERIWGLARQGYRCINCKLLVHKRCHGLVPLTCRKHMDSVMPSQEPPVDDKNEDADLPSEETDGIAYISSSRKHDSIKDDSEDLKPVIDGMDGIKISQGLGLQDFDLIRVIGRGSYAKVLLVRLKKNDQIYAMKVVKKELVHDDEDIDWVQTEKHVFEQASSNPFLVGLHSCFQTTSRLFLVIEYVNGGDLMFHMQRQRKLPEEHARFYAAEICIALNFLHERGIIYRDLKLDNVLLDADGHIKLTDYGMCKEGLGPGDTTSTFCGTPNYIAPEILRGEEYGFSVDWWALGVLMFEMMAGRSPFDIITDNPDMNTEDYLFQVILEKPIRIPRFLSVKASHVLKGFLNKDPKERLGCRPQTGFSDIKSHAFFRSIDWDLLEKKQALPPFQPQITDDYGLDNFDTQFTSEPVQLTPDDEDAIKRIDQSEFEGFEYINPLLLSTEESV
As for B2, the binding entry with BirA*-PAR6B [2] and with BirA*-PAR6B [1] was “binds” each time.

B3: TP53BP2/ASPP2 (protein, UniProt Q13625 1-1128)
chain: MMPMFLTVYLSNNEQHFTEVPVTPETICRDVVDLCKEPGESDCHLAEVWCGSERPVADNERMFDVLQRFGSQRNEVRFFLRHERPPGRDIVSGPRSQDPSLKRNGVKVPGEYRRKENGVNSPRMDLTLAELQEMASRQQQQIEAQQQLLATKEQRLKFLKQQDQRQQQQVAEQEKLKRLKEIAENQEAKLKKVRALKGHVEQKRLSNGKLVEEIEQMNNLFQQKQRELVLAVSKVEELTRQLEMLKNGRIDSHHDNQSAVAELDRLYKELQLRNKLNQEQNAKLQQQRECLNKRNSEVAVMDKRVNELRDRLWKKKAALQQKENLPVSSDGNLPQQAASAPSRVAAVGPYIQSSTMPRMPSRPELLVKPALPDGSLVIQASEGPMKIQTLPNMRSGAASQTKGSKIHPVGPDWSPSNADLFPSQGSASVPQSTGNALDQVDDGEVPLREKEKKVRPFSMFDAVDQSNAPPSFGTLRKNQSSEDILRDAQVANKNVAKVPPPVPTKPKQINLPYFGQTNQPPSDIKPDGSSQQLSTVVPSMGTKPKPAGQQPRVLLSPSIPSVGQDQTLSPGSKQESPPAAAVRPFTPQPSKDTLLPPFRKPQTVAASSIYSMYTQQQAPGKNFQQAVQSALTKTHTRGPHFSSVYGKPVIAAAQNQQQHPENIYSNSQGKPGSPEPETEPVSSVQENHENERIPRPLSPTKLLPFLSNPYRNQSDADLEALRKKLSNAPRPLKKRSSITEPEGPNGPNIQKLLYQRTTIAAMETISVPSYPSKSASVTASSESPVEIQNPYLHVEPEKEVVSLVPESLSPEDVGNASTENSDMPAPSPGLDYEPEGVPDNSPNLQNNPEEPNPEAPHVLDVYLEEYPPYPPPPYPSGEPEGPGEDSVSMRPPEITGQVSLPPGKRTNLRKTGSERIAHGMRVKFNPLALLLDSSLEGEFDLVQRIIYEVDDPSLPNDEGITALHNAVCAGHTEIVKFLVQFGVNVNAADSDGWTPLHCAASCNNVQVCKFLVESGAAVFAMTYSDMQTAADKCEEMEEGYTQCSQFLYGVQEKMGIMNKGVIYALWDYEPQNDDELPMKEGDCMTIIHREDEDEIEWWWARLNDKEGYVPRNLLGLYPRIKPRQRSLA
Take B3: the binding result in the assay with BirA*-PAR6B [1] is listed as “binds”.

B4: RALB (protein, UniProt P11234 1-206)
chain: MAANKSKGQSSLALHKVIMVGSGGVGKSALTLQFMYDEFVEDYEPTKADSYRKKVVLDGEEVQIDILDTAGQEDYAAIRDNYFRSGEGFLLVFSITEHESFTATAEFREQILRVKAEEDKIPLLVVGNKSDLEERRQVPVEEARSKAEEWGVQYVETSAKTRANVDKVFFDLMREIRTKKMSENKDKNGKKSSKNKKSFKERCCLL
As for B4, the binding entry in the assay with BirA*-PAR6B [1] is listed as “binds”.

B5: PTPN14 (protein, UniProt Q15678 1-1187)
chain: MPFGLKLRRTRRYNVLSKNCFVTRIRLLDSNVIECTLSVESTGQECLEAVAQRLELRETHYFGLWFLSKSQQARWVELEKPLKKHLDKFANEPLLFFGVMFYVPNVSWLQQEATRYQYYLQVKKDVLEGRLRCTLDQVIRLAGLAVQADFGDYNQFDSQDFLREYVLFPMDLALEEAVLEELTQKVAQEHKAHSGILPAEAELMYINEVERLDGFGQEIFPVKDNHGNCVHLGIFFMGIFVRNRIGRQAVIYRWNDMGNITHNKSTILVELINKEETALFHTDDIENAKYISRLFATRHKFYKQNKICTEQSNSPPPIRRQPTWSRSSLPRQQPYILPPVHVQCGEHYSETHTSQDSIFHGNEEALYCNSHNSLDLNYLNGTVTNGSVCSVHSVNSLNCSQSFIQASPVSSNLSIPGSDIMRADYIPSHRHSAIIVPSYRPTPDYETVMRQMKRGILHTDSQSQSLRNLNIINTHAYNQPEDLVYSQPEMRERHPYTVPYGPQGVYSNKLVSPSDQRNPKNNVVPSKPGASAISHTVSTPELANMQLQGSHNYSTAHMLKNYLFRPPPPYPRPRPATSTPDLASHRHKYVSGSSPDLVTRKVQLSVKTFQEDSSPVVHQSLQEVSEPLTATKHHGTVNKRHSLEVMNSMVRGMEAMTLKSLHLPMARRNTLREQGPPEEGSGSHEVPQLPQYHHKKTFSDATMLIHSSESEEEEEEAPESVPQIPMLREKMEYSAQLQAALARIPNKPPPEYPGPRKSVSNGALRQDQASLPPAMARARVLRHGPAKAISMSRTDPPAVNGASLGPSISEPDLTSVKERVKKEPVKERPVSEMFSLEDSIIEREMMIRNLEKQKMAGLEAQKRPLMLAALNGLSVARVSGREENRVDATRVPMDERFRTLKKKLEEGMVFTEYEQIPKKKANGIFSTAALPENAERSRIREVVPYEENRVELIPTKENNTGYINASHIKVVVGGAEWHYIATQGPLPHTCHDFWQMVWEQGVNVIAMVTAEEEGGRTKSHRYWPKLGSKHSSATYGKFKVTTKFRTDSVCYATTGLKVKHLLSGQERTVWHLQYTDWPDHGCPEDVQGFLSYLEEIQSVRRHTNSMLEGTKNRHPPIVVHCSAGVGRTGVLILSELMIYCLEHNEKVEVPMMLRLLREQRMFMIQTIAQYKFVYQVLIQFLQNSRLI
Take B5: the binding entry with BirA*-PAR6B [1] is given as “binds”.
